Peptide text beside a SMILES is read from it.
System: RAW 264.7 macrophages
Assay: PI staining of cell membrane, flow cytometry
Format: cell-based, mouse
Conditions: 24 h at 37 °C

Structure (SMILES): CC[C@H](C)[C@@H]1NC(=O)[C@H](CO)NC(=O)[C@H](CCCCN)NC(=O)[C@@H]2CSSC[C@@H](C(=O)N[C@@H](Cc3ccc(O)cc3)C(=O)O)NC(=O)[C@H](CCCCN)NC(=O)[C@@H]3CSSC[C@H](NC(=O)[C@H](CCCCN)NC(=O)[C@H](C(C)C)NC(=O)[C@H](CC(=O)O)NC(=O)[C@H](CC(=O)O)NC(=O)[C@H](CCC(=O)O)NC(=O)[C@H](CCC(=O)O)NC(=O)[C@H](Cc4c[nH]c5ccccc45)NC(=O)[C@@H]4CCCN4C(=O)CNC(=O)[C@H](CC(N)=O)NC(=O)[C@@H](NC(=O)CNC(=O)[C@H](Cc4ccccc4)NC(=O)CN)CSSC[C@H](NC(=O)[C@H](Cc4ccc(O)cc4)NC(=O)CNC(=O)CNC(=O)[C@H](CCCCN)NC(=O)[C@H](Cc4ccc(O)cc4)NC(=O)CNC(=O)[C@H](CCCCN)NC1=O)C(=O)N[C@@H](C)C(=O)N[C@@H](CCCCN)C(=O)NCC(=O)NCC(=O)N[C@@H](Cc1ccccc1)C(=O)N[C@@H](C(C)C)C(=O)N3)C(=O)N[C@@H](Cc1c[nH]cn1)C(=O)N[C@@H](CC(N)=O)C(=O)N[C@@H](Cc1c[nH]cn1)C(=O)N2 [MP1102] (HELM PEPTIDE1{G.F.G.C.N.G.P.W.E.E.D.D.V.K.C.H.N.H.C.K.S.I.K.G.Y.K.G.G.Y.C.A.K.G.G.F.V.C.K.C.Y}$PEPTIDE1,PEPTIDE1,4:R3-30:R3|PEPTIDE1,PEPTIDE1,15:R3-37:R3|PEPTIDE1,PEPTIDE1,19:R3-39:R3$$$V2.0; N-terminus and C-terminus assumed; bridges inferred)
- percentage of PI-staining in cells (25 μg/ml): 0.091%
- percentage of PI-staining in cells (250 μg/ml): 0.51%
